These are yes or no findings as the source states them, for the method shown. Binding seen in cells or lysates may run through a third protein. Some binding calls cover weakened binding; strength is not graded here.
Molecular target: YFP-SLX4 (human) (UniProt Q8IY92)
Test: co-IP

Protein sequences, listed by entry. Tags and fused reporters are not part of them.
UniProt Q8IY92: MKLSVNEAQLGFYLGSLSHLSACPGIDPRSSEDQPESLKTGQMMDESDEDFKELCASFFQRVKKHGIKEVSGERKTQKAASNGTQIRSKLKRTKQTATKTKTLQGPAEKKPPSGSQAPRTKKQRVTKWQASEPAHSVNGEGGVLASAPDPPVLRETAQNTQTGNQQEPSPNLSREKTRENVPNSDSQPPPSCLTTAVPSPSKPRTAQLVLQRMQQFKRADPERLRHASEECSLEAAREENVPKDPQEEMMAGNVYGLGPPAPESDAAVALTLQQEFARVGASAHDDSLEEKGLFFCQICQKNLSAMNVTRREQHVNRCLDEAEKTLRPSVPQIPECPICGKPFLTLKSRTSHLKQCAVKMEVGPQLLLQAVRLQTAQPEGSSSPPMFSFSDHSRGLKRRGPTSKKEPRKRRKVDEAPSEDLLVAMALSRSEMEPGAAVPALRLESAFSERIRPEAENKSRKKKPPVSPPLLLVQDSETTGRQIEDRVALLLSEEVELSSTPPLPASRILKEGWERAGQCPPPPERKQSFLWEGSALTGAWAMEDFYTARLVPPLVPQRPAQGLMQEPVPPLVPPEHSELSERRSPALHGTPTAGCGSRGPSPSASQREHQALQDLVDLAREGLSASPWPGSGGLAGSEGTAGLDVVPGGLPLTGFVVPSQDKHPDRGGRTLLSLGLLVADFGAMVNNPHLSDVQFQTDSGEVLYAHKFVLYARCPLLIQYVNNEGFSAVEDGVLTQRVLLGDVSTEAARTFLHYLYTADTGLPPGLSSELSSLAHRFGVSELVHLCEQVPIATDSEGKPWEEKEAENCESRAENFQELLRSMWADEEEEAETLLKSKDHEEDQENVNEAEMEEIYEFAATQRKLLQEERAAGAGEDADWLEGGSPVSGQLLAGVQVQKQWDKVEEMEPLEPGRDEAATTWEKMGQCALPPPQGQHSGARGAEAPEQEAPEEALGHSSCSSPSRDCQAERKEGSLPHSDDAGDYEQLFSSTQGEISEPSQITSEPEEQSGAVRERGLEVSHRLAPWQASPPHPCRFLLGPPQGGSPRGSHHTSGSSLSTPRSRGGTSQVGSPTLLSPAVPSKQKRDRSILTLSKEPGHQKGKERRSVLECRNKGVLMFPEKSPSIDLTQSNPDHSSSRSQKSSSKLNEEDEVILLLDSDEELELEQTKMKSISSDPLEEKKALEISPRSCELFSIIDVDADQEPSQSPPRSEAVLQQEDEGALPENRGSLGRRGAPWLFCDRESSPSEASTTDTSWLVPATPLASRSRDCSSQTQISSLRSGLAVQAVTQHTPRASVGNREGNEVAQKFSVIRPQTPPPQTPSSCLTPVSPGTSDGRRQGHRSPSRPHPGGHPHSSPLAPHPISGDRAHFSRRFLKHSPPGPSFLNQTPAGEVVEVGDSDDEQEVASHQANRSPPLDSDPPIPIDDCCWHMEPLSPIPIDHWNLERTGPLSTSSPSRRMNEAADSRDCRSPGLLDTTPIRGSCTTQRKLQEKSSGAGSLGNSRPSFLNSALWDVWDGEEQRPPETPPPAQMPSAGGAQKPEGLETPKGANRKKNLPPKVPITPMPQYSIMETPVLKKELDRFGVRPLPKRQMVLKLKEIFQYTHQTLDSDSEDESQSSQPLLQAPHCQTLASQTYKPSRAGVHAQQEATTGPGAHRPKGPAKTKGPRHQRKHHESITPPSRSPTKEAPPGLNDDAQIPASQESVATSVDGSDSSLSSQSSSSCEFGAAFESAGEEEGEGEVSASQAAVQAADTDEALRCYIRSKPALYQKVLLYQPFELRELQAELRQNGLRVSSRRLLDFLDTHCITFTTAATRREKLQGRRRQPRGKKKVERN

binding: binds
B1: EME1 (endogenous, HeLa) (protein, UniProt Q96AY2 1-570)
chain: MALKKSSPSLDSGDSDSEELPTFAFLKKEPSSTKRRQPEREEKIVVVDISDCEASCPPAPELFSPPVPEIAETVTQTQPVRLLSSESEDEEEFIPLAQRLTCKFLTHKQLSPEDSSSPVKSVLDHQNNEGASCDWKKPFPKIPEVPLHDTPERSAADNKDLILDPCCQLPAYLSTCPGQSSSLAVTKTNSDILPPQKKTKPSQKVQGRGSHGCRQQRQARQKESTLRRQERKNAALVTRMKAQRPEECLKHIIVVLDPVLLQMEGGGQLLGALQTMECRCVIEAQAVPCSVTWRRRAGPSEDREDWVEEPTVLVLLRAEAFVSMIDNGKQGSLDSTMKGKETLQGFVTDITAKTAGKALSLVIVDQEKCFSAQNPPRRGKQGANKQTKKQQQRQPEASIGSMVSRVDAEEALVDLQLHTEAQAQIVQSWKELADFTCAFTKAVAEAPFKKLRDETTFSFCLESDWAGGVKVDLAGRGLALVWRRQIQQLNRVSLEMASAVVNAYPSPQLLVQAYQQCFSDKERQNLLADIQVRRGEGVTSTSRRIGPELSRRIYLQMTTLQPHLSLDSAD

Source: paper doi:10.1101/2022.09.20.508711
